In patent US20210038607A1:
Structures were worked out from names or drawings and are uncertain.

By UniProt entry, the sequences of proteins in these tests, tags left out. Residues count along the entry.
UniProt O15379, whole entry: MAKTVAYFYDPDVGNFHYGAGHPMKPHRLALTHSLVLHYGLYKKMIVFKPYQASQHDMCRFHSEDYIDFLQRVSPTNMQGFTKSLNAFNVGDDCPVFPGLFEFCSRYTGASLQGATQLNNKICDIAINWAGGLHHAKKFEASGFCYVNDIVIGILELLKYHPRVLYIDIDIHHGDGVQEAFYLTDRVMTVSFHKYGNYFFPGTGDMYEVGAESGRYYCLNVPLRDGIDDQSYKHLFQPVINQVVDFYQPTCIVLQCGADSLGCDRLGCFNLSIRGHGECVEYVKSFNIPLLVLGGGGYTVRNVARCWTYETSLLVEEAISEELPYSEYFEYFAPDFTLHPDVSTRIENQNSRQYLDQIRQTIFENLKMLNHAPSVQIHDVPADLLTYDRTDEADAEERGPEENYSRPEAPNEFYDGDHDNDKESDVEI
UniProt P56524, 627-1084 limits assumed: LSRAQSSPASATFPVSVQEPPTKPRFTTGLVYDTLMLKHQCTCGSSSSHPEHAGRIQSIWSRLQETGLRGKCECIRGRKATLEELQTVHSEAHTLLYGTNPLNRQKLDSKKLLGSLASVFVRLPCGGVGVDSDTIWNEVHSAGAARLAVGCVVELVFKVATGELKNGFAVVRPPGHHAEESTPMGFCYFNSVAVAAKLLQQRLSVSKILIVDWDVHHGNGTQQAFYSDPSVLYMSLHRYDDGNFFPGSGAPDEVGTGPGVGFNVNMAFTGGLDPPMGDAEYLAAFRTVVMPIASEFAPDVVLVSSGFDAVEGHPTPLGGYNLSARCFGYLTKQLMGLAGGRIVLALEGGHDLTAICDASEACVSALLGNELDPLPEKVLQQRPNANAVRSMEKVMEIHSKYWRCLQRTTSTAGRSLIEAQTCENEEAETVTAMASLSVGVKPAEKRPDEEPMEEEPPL
UniProt Q969S8, 1-481 limits assumed: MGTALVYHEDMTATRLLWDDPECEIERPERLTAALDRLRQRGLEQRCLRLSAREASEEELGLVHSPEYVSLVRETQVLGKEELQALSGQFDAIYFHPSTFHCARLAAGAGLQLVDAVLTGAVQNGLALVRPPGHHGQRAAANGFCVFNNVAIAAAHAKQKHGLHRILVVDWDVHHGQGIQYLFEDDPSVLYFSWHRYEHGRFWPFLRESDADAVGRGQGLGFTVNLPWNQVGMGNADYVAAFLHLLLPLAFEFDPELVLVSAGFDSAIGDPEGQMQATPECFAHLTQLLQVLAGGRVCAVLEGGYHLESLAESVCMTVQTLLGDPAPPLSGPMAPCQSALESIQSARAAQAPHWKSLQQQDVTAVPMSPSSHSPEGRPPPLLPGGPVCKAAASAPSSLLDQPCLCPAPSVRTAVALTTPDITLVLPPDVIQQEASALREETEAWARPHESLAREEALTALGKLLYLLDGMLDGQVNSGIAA
UniProt Q8WUI4, 518-952 limits assumed: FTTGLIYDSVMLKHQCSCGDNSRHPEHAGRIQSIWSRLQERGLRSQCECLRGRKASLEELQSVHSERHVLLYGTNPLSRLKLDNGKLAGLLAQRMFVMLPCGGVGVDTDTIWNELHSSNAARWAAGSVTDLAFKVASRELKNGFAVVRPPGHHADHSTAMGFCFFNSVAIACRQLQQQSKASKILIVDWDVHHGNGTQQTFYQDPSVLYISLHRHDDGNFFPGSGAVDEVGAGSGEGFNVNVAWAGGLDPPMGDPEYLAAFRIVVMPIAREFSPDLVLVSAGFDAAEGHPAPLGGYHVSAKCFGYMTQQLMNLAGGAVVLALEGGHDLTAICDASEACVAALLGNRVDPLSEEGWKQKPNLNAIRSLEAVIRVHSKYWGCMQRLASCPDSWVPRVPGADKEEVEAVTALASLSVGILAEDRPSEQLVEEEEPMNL
UniProt Q92769, whole entry: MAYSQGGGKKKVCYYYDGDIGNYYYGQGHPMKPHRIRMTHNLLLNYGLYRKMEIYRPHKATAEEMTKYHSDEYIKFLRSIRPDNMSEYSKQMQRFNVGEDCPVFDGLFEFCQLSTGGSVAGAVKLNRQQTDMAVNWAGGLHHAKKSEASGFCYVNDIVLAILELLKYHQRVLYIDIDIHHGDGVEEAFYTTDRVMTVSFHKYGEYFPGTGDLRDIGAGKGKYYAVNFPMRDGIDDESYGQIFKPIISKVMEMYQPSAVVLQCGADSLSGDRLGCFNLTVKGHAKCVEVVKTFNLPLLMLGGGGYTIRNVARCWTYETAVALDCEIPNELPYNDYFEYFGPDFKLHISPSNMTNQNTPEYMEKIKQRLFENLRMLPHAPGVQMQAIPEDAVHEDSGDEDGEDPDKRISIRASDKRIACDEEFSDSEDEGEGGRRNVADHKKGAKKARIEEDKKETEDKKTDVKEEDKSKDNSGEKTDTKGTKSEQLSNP
UniProt Q13547, whole entry: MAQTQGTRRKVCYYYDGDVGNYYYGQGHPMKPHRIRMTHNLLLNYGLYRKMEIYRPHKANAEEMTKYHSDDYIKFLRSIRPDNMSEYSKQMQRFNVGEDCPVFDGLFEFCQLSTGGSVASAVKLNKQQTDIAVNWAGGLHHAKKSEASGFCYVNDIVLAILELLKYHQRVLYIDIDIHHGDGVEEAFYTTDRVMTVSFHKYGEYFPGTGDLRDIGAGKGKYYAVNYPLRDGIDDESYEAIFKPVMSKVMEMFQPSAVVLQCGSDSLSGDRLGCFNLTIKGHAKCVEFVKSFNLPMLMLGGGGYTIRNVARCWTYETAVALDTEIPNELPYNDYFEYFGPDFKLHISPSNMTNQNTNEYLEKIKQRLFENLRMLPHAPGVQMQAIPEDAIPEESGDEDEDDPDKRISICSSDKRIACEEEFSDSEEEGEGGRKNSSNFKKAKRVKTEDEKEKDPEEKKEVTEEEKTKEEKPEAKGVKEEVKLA
UniProt Q9UKV0, 604-1066 isoform 5 limits assumed: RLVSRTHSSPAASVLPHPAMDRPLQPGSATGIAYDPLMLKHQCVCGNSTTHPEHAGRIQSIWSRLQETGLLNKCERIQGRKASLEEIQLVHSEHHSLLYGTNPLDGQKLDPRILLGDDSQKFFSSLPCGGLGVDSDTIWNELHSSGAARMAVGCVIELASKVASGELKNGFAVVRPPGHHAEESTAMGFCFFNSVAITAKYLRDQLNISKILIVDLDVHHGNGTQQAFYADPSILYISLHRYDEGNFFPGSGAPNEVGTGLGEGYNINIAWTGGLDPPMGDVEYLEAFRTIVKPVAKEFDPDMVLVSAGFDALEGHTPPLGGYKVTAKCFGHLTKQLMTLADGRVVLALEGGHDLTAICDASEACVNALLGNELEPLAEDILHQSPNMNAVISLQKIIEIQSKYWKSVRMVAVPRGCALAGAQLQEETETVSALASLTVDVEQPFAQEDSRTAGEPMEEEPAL
UniProt Q9BY41, whole entry: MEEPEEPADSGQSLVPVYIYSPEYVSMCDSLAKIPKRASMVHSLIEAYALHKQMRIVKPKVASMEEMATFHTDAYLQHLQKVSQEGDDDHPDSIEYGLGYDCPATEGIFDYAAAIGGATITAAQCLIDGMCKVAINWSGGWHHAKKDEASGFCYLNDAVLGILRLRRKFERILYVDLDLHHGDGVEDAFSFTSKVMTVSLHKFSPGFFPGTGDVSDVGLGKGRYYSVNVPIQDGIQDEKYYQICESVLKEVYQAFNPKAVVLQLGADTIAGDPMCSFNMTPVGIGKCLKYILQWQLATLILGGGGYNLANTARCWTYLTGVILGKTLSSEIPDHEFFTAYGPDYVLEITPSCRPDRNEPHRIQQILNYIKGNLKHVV
UniProt Q9UQL6, 656-1122 limits assumed: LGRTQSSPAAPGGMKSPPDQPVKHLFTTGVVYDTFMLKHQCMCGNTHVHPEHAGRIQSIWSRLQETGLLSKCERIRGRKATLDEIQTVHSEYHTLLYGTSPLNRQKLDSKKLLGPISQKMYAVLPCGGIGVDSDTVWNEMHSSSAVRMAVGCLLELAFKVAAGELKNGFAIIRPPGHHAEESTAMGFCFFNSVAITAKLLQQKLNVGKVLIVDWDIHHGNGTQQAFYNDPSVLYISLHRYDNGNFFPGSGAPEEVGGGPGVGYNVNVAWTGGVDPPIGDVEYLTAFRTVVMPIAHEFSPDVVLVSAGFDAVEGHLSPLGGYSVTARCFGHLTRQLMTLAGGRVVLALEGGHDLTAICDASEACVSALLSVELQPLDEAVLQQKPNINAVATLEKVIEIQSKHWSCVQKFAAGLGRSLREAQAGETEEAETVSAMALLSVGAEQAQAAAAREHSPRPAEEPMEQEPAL
UniProt Q9UBN7, whole entry: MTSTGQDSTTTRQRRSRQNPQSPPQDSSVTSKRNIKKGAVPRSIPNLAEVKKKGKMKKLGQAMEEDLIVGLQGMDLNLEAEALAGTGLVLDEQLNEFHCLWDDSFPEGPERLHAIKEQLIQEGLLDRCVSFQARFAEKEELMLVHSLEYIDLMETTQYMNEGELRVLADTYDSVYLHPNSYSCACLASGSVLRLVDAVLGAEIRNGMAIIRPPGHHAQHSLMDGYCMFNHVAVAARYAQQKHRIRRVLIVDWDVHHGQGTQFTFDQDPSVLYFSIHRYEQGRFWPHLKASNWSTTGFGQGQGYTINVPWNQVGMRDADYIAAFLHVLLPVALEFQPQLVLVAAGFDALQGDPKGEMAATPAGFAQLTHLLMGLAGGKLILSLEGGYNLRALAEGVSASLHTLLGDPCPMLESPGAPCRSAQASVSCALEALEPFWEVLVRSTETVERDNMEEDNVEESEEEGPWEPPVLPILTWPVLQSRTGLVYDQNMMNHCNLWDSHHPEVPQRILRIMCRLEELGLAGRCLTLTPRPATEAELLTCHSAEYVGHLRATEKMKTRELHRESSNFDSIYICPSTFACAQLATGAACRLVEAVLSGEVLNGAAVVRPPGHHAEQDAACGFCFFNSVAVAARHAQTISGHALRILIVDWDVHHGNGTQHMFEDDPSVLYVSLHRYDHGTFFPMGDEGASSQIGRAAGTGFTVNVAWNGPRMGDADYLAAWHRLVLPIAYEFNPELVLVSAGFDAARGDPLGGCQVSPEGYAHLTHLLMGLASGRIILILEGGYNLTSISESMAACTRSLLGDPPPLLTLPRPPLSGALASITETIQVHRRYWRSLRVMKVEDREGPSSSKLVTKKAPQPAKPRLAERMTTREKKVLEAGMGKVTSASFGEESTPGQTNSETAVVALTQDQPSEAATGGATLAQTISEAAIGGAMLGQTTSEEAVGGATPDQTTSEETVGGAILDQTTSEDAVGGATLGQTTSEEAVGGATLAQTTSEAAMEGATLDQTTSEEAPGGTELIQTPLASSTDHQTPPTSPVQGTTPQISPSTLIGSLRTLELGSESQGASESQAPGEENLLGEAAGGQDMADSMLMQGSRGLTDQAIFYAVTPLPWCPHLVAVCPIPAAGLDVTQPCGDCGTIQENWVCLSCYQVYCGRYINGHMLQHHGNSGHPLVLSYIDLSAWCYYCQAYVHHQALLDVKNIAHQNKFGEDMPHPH
UniProt Q96DB2, whole entry: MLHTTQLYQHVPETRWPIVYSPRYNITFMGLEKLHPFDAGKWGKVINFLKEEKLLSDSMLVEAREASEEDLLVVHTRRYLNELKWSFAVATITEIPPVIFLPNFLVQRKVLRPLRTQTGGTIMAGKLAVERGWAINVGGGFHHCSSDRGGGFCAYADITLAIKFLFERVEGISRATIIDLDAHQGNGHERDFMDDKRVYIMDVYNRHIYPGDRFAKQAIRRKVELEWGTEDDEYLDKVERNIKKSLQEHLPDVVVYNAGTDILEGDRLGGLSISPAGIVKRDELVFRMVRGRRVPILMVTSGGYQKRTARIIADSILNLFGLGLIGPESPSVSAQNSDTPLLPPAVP
UniProt Q9Y618, 395-489 partner limits assumed: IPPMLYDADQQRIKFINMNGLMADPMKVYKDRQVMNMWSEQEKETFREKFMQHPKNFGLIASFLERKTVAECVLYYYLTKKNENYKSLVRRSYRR

Key:
[1] = biological target: Complex of human HDAC3 and human NCOR2 (Homo sapiens, UniProt O15379); assay: HDAC3 biochemical assay, AMC-labeled peptide substrate; conditions: read-out: HDAC Isoform IC50 (nM) 3
[2] = biological target: Human HDAC4 (Homo sapiens, UniProt P56524); assay: HDAC4 biochemical assay, class IIa-specific substrate; conditions: read-out: HDAC Isoform IC50 (nM) 4
[3] = biological target: Human HDAC10 (Homo sapiens, UniProt Q969S8); assay: HDAC10 biochemical assay, AMC-labeled peptide substrate; conditions: read-out: HDAC Isoform IC50 (nM) 10
[4] = biological target: Human HDAC7 (Homo sapiens, UniProt Q8WUI4); assay: HDAC7 biochemical assay, class IIa-specific substrate; conditions: read-out: HDAC Isoform IC50 (nM) 7
[5] = biological target: Human HDAC2 (Homo sapiens, UniProt Q92769); assay: HDAC2 biochemical assay, AMC-labeled peptide substrate; conditions: read-out: HDAC Isoform IC50 (nM) 2
[6] = biological target: Human HDAC1 (Homo sapiens, UniProt Q13547); assay: HDAC1 biochemical assay, AMC-labeled peptide substrate; conditions: read-out: HDAC Isoform IC50 (nM) 1
[7] = biological target: Human HDAC9 (Homo sapiens, UniProt Q9UKV0); assay: HDAC9 biochemical assay, class IIa-specific substrate; conditions: read-out: HDAC Isoform IC50 (nM) 9
[8] = biological target: Human HDAC8 (Homo sapiens, UniProt Q9BY41); assay: HDAC8 biochemical assay, AMC-labeled peptide substrate; conditions: read-out: HDAC Isoform IC50 (nM) 8
[9] = biological target: Human HDAC5 (Homo sapiens, UniProt Q9UQL6); assay: HDAC5 biochemical assay, class IIa-specific substrate; conditions: read-out: HDAC Isoform IC50 (nM) 5
[10] = biological target: Recombinant human HDAC6 (Homo sapiens, UniProt Q9UBN7); assay: HDAC6 biochemical assay, AMC-labeled peptide substrate; conditions: read-out: HDAC Isoform IC50 (nM) 6
[11] = biological target: Human HDAC11 (Homo sapiens, UniProt Q96DB2); assay: HDAC11 biochemical assay, class IIa-specific substrate; conditions: read-out: HDAC Isoform IC50 (nM) 11

**Q.** For `FC(F)(F)c1nc(-c2ccc(CN(c3cnccn3)c3ncccc3C(F)(F)F)s2)no1`, which IC50 [1] is on record?
**A.** > 10000 nM

**Q.** And the IC50 [2]?
**A.** < 1000 nM

**Q.** And the IC50 [3]?
**A.** > 10000 nM

**Q.** What about the IC50 [4] of the same molecule?
**A.** < 10000 nM

**Q.** What about the IC50 [5] of the same molecule?
**A.** > 10000 nM

**Q.** What about the IC50 [6] of the same molecule?
**A.** > 10000 nM

**Q.** And the IC50 [7]?
**A.** < 10000 nM

**Q.** What about the IC50 [8] of the same molecule?
**A.** > 10000 nM

**Q.** And the IC50 [9]?
**A.** < 1000 nM

**Q.** What about the IC50 [10] of the same molecule?
**A.** < 10000 nM

**Q.** What about the IC50 [11] of the same molecule?
**A.** > 10000 nM
